This is one part of the list. Repeats are few or missing, and single values can be far off.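 Cells were imaged in 1,536-well plates, and nuclei stained with an antibody against cleaved PARP were counted against all DNA-stained nuclei to give the apoptosis fraction. Screening doses were chosen to leave most cells alive, and resting and induced cleaved-PARP levels differ strongly between cell lines.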
Columns and labels:
Test in all cases: cleaved PARP positive nuclei fraction relative to DMSO control; melanoma cells; higher = more apoptosis
Conditions in all cases: library dose: low library concentration; 72 h
MZ2-MEL = tested on: MZ2-MEL
MeWo = tested on: MeWo
RPMI7951 = tested on: RPMI7951
RVH-421 = tested on: RVH-421
SkMel28 = tested on: SkMel28
SkMel2 = tested on: SkMel2
SkMel30 = tested on: SkMel30
UACC62 = tested on: UACC62
WM115 = tested on: WM115
WM1716 = tested on: WM1716
WM1745 = tested on: WM1745
WM3526 = tested on: WM3526
WM3619 = tested on: WM3619
WM451Lu = tested on: WM451Lu

| SMILES | cleaved PARP positive nuclei fraction (MZ2-MEL) [%] | cleaved PARP positive nuclei fraction (MeWo) [%] | cleaved PARP positive nuclei fraction (RPMI7951) [%] | cleaved PARP positive nuclei fraction (RVH-421) [%] | cleaved PARP positive nuclei fraction (SkMel28) [%] | cleaved PARP positive nuclei fraction (SkMel2) [%] | cleaved PARP positive nuclei fraction (SkMel30) [%] | cleaved PARP positive nuclei fraction (UACC62) [%] | cleaved PARP positive nuclei fraction (WM115) [%] | cleaved PARP positive nuclei fraction (WM1716) [%] | cleaved PARP positive nuclei fraction (WM1745) [%] | cleaved PARP positive nuclei fraction (WM3526) [%] | cleaved PARP positive nuclei fraction (WM3619) [%] | cleaved PARP positive nuclei fraction (WM451Lu) [%] |
| --- | --- | --- | --- | --- | --- | --- | --- | --- | --- | --- | --- | --- | --- | --- |
| CCCCCCCCc1ccc(CCC(N)(CO)CO)cc1 [fingolimod] + C#Cc1cccc(Nc2ncnc3cc(OCCOC)c(OCCOC)cc23)c1 [erlotinib] (first compound 2 µM, partner dose 0.8 µM) | 51.4 | 142 | 71 | 99.6 | 81.7 | 53.7 | 22.4 | 191 | 84.1 | 91.3 | 131 | 81.4 | 112 | 165 |
| COc1ccc(C2=N[C@@H](c3ccc(Cl)cc3)[C@@H](c3ccc(Cl)cc3)N2C(=O)N2CCNC(=O)C2)c(OC(C)C)c1 [Nutlin-3] + CCN(CC)CCNC(=O)c1c(C)[nH]c(/C=C2\C(=O)Nc3ccc(F)cc32)c1C [sunitinib] (first compound 0.1 µM, partner dose 0.4 µM) | 125 | 186 | 99.6 | 107 | 90.9 | 106 | 89.3 | 102 | 194 | 71.7 | 110 | 93.1 | 93.3 | 83 |
| NC(=O)c1ccc(N(C(N)=O)c2c(F)cccc2F)nc1-c1ccc(F)cc1F + C[C@@H](Oc1cc(-c2cnn(C3CCNCC3)c2)cnc1N)c1c(Cl)ccc(F)c1Cl [Crizotinib] (first compound 0.4 µM, partner dose 0.2 µM) | 111 | 96.3 | 84 | 226 | 96 | 29.1 | 58 | 88.7 | 49.5 | 32.7 | 87.9 | 46.2 | 97.7 | 89.7 |
| CN(c1ncccc1CNc1nc(Nc2ccc3c(c2)CC(=O)N3)ncc1C(F)(F)F)S(C)(=O)=O + CO[C@H]1C[C@@H]2CC[C@@H](C)[C@@](O)(O2)C(=O)C(=O)N2CCCC[C@H]2C(=O)O[C@H]([C@H](C)C[C@@H]2CC[C@@H](OCCO)[C@H](OC)C2)CC(=O)[C@H](C)/C=C(\C)[C@@H](O)[C@@H](OC)C(=O)[C@H](C)C[C@H](C)/C=C/C=C/C=C/1C [everolimus] (first compound 0.08 µM, partner dose 0.02 µM) | 77.2 | 115 | 142 | 141 | 168 | – | 55.5 | 343 | 136 | 62.8 | 112 | 79.2 | 142 | 182 |
| CCN(CC)CCNC(=O)c1c(C)[nH]c(/C=C2\C(=O)Nc3ccc(F)cc32)c1C [sunitinib] + CNC(=O)c1cc(Oc2ccc(NC(=O)Nc3ccc(Cl)c(C(F)(F)F)c3)cc2)ccn1 [sorafenib] (first compound 0.4 µM, partner dose 0.4 µM) | 81.7 | 54.7 | 82.8 | 305 | 82.3 | 84.1 | 88.4 | 190 | 121 | 94.5 | 131 | 102 | 73.5 | 26.8 |
| CN(c1ncccc1CNc1nc(Nc2ccc3c(c2)CC(=O)N3)ncc1C(F)(F)F)S(C)(=O)=O + C#Cc1cccc(Nc2ncnc3cc(OCCOC)c(OCCOC)cc23)c1 [erlotinib] (first compound 0.08 µM, partner dose 0.8 µM) | 222 | 62.9 | 151 | 96 | 46.9 | – | 62.9 | 404 | 242 | 57.1 | 117 | 44.3 | 92 | 242 |
| C[C@]1(O)C[C@@H](c2nc(-c3ccc4ccc(-c5ccccc5)nc4c3)c3c(N)nccn32)C1 + CO[C@H]1C[C@@H]2CC[C@@H](C)[C@@](O)(O2)C(=O)C(=O)N2CCCC[C@H]2C(=O)O[C@H]([C@H](C)C[C@@H]2CC[C@@H](OCCO)[C@H](OC)C2)CC(=O)[C@H](C)/C=C(\C)[C@@H](O)[C@@H](OC)C(=O)[C@H](C)C[C@H](C)/C=C/C=C/C=C/1C [everolimus] (first compound 0.4 µM, partner dose 0.02 µM) | 425 | 62.5 | 82.8 | 76.5 | 287 | – | 193 | 991 | 107 | 87.5 | 137 | 278 | 190 | 120 |
| NC1(c2ccc(-c3nc4ccn5c(=O)[nH]nc5c4cc3-c3ccccc3)cc2)CCC1 + CO[C@H]1C[C@@H]2CC[C@@H](C)[C@@](O)(O2)C(=O)C(=O)N2CCCC[C@H]2C(=O)O[C@H]([C@H](C)C[C@@H]2CC[C@@H](OCCO)[C@H](OC)C2)CC(=O)[C@H](C)/C=C(\C)[C@@H](O)[C@@H](OC)C(=O)[C@H](C)C[C@H](C)/C=C/C=C/C=C/1C [everolimus] (first compound 0.4 µM, partner dose 0.02 µM) | 127 | 144 | 106 | 39 | 234 | – | 319 | 379 | 338 | 536 | 218 | 313 | 151 | 210 |
| CS(=O)(=O)c1ccc(C(=O)Nc2ccc(Cl)c(-c3ccccn3)c2)c(Cl)c1 [vismodegib] + Nc1cccc2c1CN(C1CCC(=O)NC1=O)C2=O [lenalidomide] (first compound 1 µM, partner dose 1 µM) | 123 | 89.5 | 83.5 | 37.8 | 40.5 | – | 29.8 | 193 | 99.2 | 67.9 | 102 | 166 | 86.8 | 57.1 |

Limited to cleaved PARP positive nuclei fraction (SkMel30) [%] and cleaved PARP positive nuclei fraction (WM1716) [%], for some of the entries so far:
SMILES,cleaved PARP positive nuclei fraction (SkMel30) [%],cleaved PARP positive nuclei fraction (WM1716) [%]
"COc1ccc(C2=N[C@@H](c3ccc(Cl)cc3)[C@@H](c3ccc(Cl)cc3)N2C(=O)N2CCNC(=O)C2)c(OC(C)C)c1 [Nutlin-3] + CCN(CC)CCNC(=O)c1c(C)[nH]c(/C=C2\C(=O)Nc3ccc(F)cc32)c1C [sunitinib] (first compound 0.1 µM, partner dose 0.4 µM)",89.3,71.7
"NC(=O)c1ccc(N(C(N)=O)c2c(F)cccc2F)nc1-c1ccc(F)cc1F + C[C@@H](Oc1cc(-c2cnn(C3CCNCC3)c2)cnc1N)c1c(Cl)ccc(F)c1Cl [Crizotinib] (first compound 0.4 µM, partner dose 0.2 µM)",58,32.7
